Test results reported in article PMC7870876.
These are yes or no findings as the source states them, for the method shown. In cells and extracts the contact can be indirect. Some entries that bind do so weakly or less than the wild type.

Sequences of proteins named here, by UniProt entry; tags and fusion partners are left off.
UniProt Q8R2H0: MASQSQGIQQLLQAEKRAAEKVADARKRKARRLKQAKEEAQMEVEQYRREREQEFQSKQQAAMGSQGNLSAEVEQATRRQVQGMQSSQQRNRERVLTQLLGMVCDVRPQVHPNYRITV
UniProt Q02563: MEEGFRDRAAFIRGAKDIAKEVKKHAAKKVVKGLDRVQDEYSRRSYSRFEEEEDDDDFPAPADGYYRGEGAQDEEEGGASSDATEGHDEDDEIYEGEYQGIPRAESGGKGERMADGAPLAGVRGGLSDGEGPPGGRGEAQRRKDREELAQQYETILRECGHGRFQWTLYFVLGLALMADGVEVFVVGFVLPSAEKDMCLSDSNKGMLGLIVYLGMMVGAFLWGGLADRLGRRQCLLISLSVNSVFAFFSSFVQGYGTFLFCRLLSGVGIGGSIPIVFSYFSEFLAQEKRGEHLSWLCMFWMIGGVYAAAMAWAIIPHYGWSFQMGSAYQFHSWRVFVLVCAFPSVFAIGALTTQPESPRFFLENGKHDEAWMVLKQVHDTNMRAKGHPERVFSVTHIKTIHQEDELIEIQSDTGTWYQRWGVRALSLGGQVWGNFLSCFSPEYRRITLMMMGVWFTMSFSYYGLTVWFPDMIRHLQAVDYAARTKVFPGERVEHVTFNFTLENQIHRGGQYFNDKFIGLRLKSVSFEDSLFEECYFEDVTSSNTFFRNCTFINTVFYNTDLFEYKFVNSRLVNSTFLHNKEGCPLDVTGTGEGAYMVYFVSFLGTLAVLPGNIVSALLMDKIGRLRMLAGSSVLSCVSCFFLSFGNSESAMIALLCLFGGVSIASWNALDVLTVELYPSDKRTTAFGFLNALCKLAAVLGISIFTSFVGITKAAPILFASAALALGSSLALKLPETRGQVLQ
UniProt P22831: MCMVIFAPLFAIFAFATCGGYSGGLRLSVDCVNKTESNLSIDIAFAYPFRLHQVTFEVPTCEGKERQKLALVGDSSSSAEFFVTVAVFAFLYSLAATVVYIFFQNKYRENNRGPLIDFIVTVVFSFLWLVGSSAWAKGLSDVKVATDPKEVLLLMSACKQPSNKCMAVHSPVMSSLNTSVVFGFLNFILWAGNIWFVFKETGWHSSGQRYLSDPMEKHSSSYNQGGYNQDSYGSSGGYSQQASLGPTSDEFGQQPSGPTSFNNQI
UniProt Q6PCU2: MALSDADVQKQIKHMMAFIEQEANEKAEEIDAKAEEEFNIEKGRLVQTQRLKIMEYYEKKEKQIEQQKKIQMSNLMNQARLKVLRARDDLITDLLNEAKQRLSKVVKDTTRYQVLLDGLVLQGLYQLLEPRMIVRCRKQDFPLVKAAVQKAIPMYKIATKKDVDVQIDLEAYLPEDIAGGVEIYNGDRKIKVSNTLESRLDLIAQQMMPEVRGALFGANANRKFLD
UniProt P07825: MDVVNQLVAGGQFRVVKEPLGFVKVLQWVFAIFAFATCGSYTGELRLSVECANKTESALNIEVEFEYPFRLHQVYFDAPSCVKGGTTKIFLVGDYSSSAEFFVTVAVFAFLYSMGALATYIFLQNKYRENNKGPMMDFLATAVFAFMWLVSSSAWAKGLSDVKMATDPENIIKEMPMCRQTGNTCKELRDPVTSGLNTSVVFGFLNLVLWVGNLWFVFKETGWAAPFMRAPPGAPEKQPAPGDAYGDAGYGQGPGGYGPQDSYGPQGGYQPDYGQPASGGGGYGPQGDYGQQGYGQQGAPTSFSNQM
UniProt P63045: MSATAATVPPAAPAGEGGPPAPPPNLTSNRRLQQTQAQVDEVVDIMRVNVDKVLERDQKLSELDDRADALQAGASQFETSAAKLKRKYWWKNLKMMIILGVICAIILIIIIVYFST

Experiments:
[1] = target: V-ATPase subunit G2 (rat (endogenous in rat brain synaptic vesicles)) (UniProt Q8R2H0); test: cross-linking
[2] = target: V-ATPase subunit G2 (rat (endogenous in rat brain synaptic vesicles)) (UniProt Q8R2H0); test: cross-linking; synaptic vesicles fused with ΔN-SNARE-proteoliposomes (100 nm liposomes), then BS3 and LC-MS/MS; vesicle proteins in the more spacious membrane
[3] = target: V-ATPase subunit G2 (rat (endogenous in rat brain synaptic vesicles)) (UniProt Q8R2H0); test: cross-linking; synaptic vesicles incubated with an excess of soluble ΔN-SNARE complex (about 3 copies per copy of Synaptobrevin-2, 16 h, 4 °C), then BS3 and LC-MS/MS; vesicle proteins and the SNARE complex on the vesicles
[4] = target: V-ATPase subunit G2 (rat (endogenous in rat brain synaptic vesicles)) (UniProt Q8R2H0); test: cross-linking; purified, unstimulated, untreated rat brain synaptic vesicles; 10 mM BS3, 1 h, 25 °C; trypsin, enrichment of cross-linked peptides by peptide SEC, LC-MS/MS, pLink, manual validation; four biological replicates
[5] = target: SV2A (rat (endogenous in rat brain synaptic vesicles)) (UniProt Q02563); test: cross-linking
[6] = target: T1, Synaptogyrin-1 (rat (endogenous in rat brain synaptic vesicles)) (UniProt Q62876); test: cross-linking
T1 sequence: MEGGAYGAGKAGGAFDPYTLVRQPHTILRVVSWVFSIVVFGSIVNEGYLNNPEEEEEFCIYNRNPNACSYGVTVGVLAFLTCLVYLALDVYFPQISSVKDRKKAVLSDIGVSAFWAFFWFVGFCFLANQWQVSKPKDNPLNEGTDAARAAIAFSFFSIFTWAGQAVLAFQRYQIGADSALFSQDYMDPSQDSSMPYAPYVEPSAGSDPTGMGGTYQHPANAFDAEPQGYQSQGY

[7] = target: T1, Synaptogyrin-1 (rat (endogenous in rat brain synaptic vesicles)); test: cross-linking; synaptic vesicles fused with ΔN-SNARE-proteoliposomes (100 nm liposomes), then BS3 and LC-MS/MS; vesicle proteins in the more spacious membrane
[8] = target: SV2A (rat (endogenous in rat brain synaptic vesicles)) (UniProt Q02563); test: cross-linking; synaptic vesicles incubated with an excess of soluble ΔN-SNARE complex (about 3 copies per copy of Synaptobrevin-2, 16 h, 4 °C), then BS3 and LC-MS/MS; vesicle proteins and the SNARE complex on the vesicles
[9] = target: SV2A (rat (endogenous in rat brain synaptic vesicles)) (UniProt Q02563); test: cross-linking; purified, unstimulated, untreated rat brain synaptic vesicles; 10 mM BS3, 1 h, 25 °C; trypsin, enrichment of cross-linked peptides by peptide SEC, LC-MS/MS, pLink, manual validation; four biological replicates
[10] = target: T1, Synaptogyrin-1 (rat (endogenous in rat brain synaptic vesicles)); test: as above
[11] = target: Synaptoporin (rat (endogenous in rat brain synaptic vesicles)) (UniProt P22831); test: as above
[12] = target: V-ATPase subunit E1 (rat (endogenous in rat brain synaptic vesicles)) (UniProt Q6PCU2); test: cross-linking
[13] = target: V-ATPase subunit E1 (rat (endogenous in rat brain synaptic vesicles)) (UniProt Q6PCU2); test: cross-linking; synaptic vesicles fused with ΔN-SNARE-proteoliposomes (100 nm liposomes), then BS3 and LC-MS/MS; vesicle proteins in the more spacious membrane
[14] = target: V-ATPase subunit E1 (rat (endogenous in rat brain synaptic vesicles)) (UniProt Q6PCU2); test: cross-linking; synaptic vesicles incubated with an excess of soluble ΔN-SNARE complex (about 3 copies per copy of Synaptobrevin-2, 16 h, 4 °C), then BS3 and LC-MS/MS; vesicle proteins and the SNARE complex on the vesicles
[15] = target: V-ATPase subunit E1 (rat (endogenous in rat brain synaptic vesicles)) (UniProt Q6PCU2); test: cross-linking; purified, unstimulated, untreated rat brain synaptic vesicles; 10 mM BS3, 1 h, 25 °C; trypsin, enrichment of cross-linked peptides by peptide SEC, LC-MS/MS, pLink, manual validation; four biological replicates

Measured: binding

V-ATPase subunit E1 (from UniProt Q6PCU2 1-226)
binds: [1] | [2] | [3] | [4]

Synaptophysin (from UniProt P07825 1-307)
binds: [5] | [6] | [7] | [8] | [9] | [10] | [11]

Synaptobrevin-2 (from UniProt P63045 1-116)
binds: [8] | [9]

‘head’ of the V-ATPase (i.e. subunits A and B2) (from UniProt D4A133 1-647; P62815 1-511) (complex)
binds: [12] | [13] | [14] | [15]
